Laboratory results from patent publication US20240398973A1 (Eli Lilly and Company, priority 2017, published 2024).

Assays:
[1] = Conjugation ratio determination by intact mass spec; format: physicochemical; settings: peptide:antibody ratio
[2] = general procedure: Fmoc solid-phase peptide synthesis; Fmoc-Lys(Mtt)-Wang resin, 100-200 mesh, 0.57 meq/g; Fmoc-Lys(Boc)-Wang resin; settings: for final HPLC purity: analytical RP-HPLC; for isolated yield: based on starting resin substitution
[3] = general procedure: Fmoc solid-phase peptide synthesis; Fmoc-Lys(Boc)-Wang; settings: whole synthesis, scale 0.3 mmol, HCl salt
[4] = general procedure: Fmoc solid-phase peptide synthesis; Fmoc-Lys(Mtt)-Wang; settings: whole synthesis, scale 0.3 mmol, TFA salt
[5] = whole synthesis, scale of the general procedure 0.3 mmol, TFA salt

HC262: cMet (emibetuzumab) HC 262C mutant conjugated with Peptide-'183; HC SEQ ID NO:46, LC SEQ ID NO:5
Conjugation Ratio (CR) [1]: 0.62

For-MLFK-OH
final HPLC purity ([2]; whole synthesis, scale of the general procedure 0.3 mmol, HCl salt): >99%
isolated yield ([2]; whole synthesis, scale 0.3 mmol, HCl salt): 73%
isolated mass [3]: 125 mg

HC397: cMet (emibetuzumab) HC 397C mutant conjugated with Peptide-'183; HC SEQ ID NO:48, LC SEQ ID NO:5
Conjugation Ratio (CR) [1]: 0.36

formyl-Met-Leu-Phe-Lys (Mal-PEG12)-OH
final HPLC purity ([2]; conjugation step, TFA salt): >96%
conjugation yield ([2]; conjugation step, based on starting material, TFA salt): 38%

LC202: cMet (emibetuzumab) LC 202C mutant conjugated with Peptide-'183; HC SEQ ID NO:43, LC SEQ ID NO:31
Conjugation Ratio (CR) [1]: 0.43

formyl-Nle-Leu-Phe-PEG12-Lys (Maleimido-Propionyl)-OH
final HPLC purity ([2]; late stage modification step, TFA salt): >97%
step yield ([2]; late stage modification step, based on starting material, TFA salt): 15.1%

H-Met-Leu-Phe-Lys (Mal-PEG12-OH (MLFK; Mal-PEG12-OH; SITE 4 MISC_FEATURE - position 4 is lysine residue modified by amide bond formation to maleimide-polyethylene glycol (PEG) linker)
final HPLC purity [2, 5]: >96%
isolated yield [2, 5]: 10%
isolated mass [4]: 38.8 mg

The star is where a group is joined. For = O=C*
